Data taken from paper PMC11137954.
No constants are given. Whether binding was seen depends on the method and setting. In cells and extracts the contact can be indirect. Some binding calls cover weakened binding; strength is not graded here.

Target: T1, Nucleosome assembly protein 1-like 1 (human (endogenous in Hep-G2 and Hep-3B)) (UniProt P55209)
T1 sequence: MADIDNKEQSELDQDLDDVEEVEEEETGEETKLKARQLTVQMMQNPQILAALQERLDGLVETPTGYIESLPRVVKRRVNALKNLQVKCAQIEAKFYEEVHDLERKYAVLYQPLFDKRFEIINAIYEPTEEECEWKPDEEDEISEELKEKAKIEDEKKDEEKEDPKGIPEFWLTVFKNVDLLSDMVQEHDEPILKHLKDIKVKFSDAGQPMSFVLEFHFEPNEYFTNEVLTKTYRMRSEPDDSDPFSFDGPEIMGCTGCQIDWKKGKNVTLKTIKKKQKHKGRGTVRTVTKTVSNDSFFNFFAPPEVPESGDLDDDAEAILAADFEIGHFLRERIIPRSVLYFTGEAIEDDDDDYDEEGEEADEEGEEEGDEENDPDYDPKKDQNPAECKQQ
Assay: co-IP; immunoprecipitation with anti-NAP1L1 or anti-UBE2O antibody in Hep-G2 and Hep-3B cells, detection by western blot

- binding: binds
B1: Ubiquitin-conjugating enzyme E2O (enzyme, UniProt Q9C0C9 1-1292)
chain: MADPAAPTPAAPAPAQAPAPAPEAVPAPAAAPVPAPAPASDSASGPSSDSGPEAGSQRLLFSHDLVSGRYRGSVHFGLVRLIHGEDSDSEGEEEGRGSSGCSEAGGAGHEEGRASPLRRGYVRVQWYPEGVKQHVKETKLKLEDRSVVPRDVVRHMRSTDSQCGTVIDVNIDCAVKLIGTNCIIYPVNSKDLQHIWPFMYGDYIAYDCWLGKVYDLKNQIILKLSNGARCSMNTEDGAKLYDVCPHVSDSGLFFDDSYGFYPGQVLIGPAKIFSSVQWLSGVKPVLSTKSKFRVVVEEVQVVELKVTWITKSFCPGGTDSVSPPPSVITQENLGRVKRLGCFDHAQRQLGERCLYVFPAKVEPAKIAWECPEKNCAQGEGSMAKKVKRLLKKQVVRIMSCSPDTQCSRDHSMEDPDKKGESKTKSEAESASPEETPDGSASPVEMQDEGAEEPHEAGEQLPPFLLKEGRDDRLHSAEQDADDEAADDTDDTSSVTSSASSTTSSQSGSGTSRKKSIPLSIKNLKRKHKRKKNKITRDFKPGDRVAVEVVTTMTSADVMWQDGSVECNIRSNDLFPVHHLDNNEFCPGDFVVDKRVQSCPDPAVYGVVQSGDHIGRTCMVKWFKLRPSGDDVELIGEEEDVSVYDIADHPDFRFRTTDIVIRIGNTEDGAPHKEDEPSVGQVARVDVSSKVEVVWADNSKTIILPQHLYNIESEIEESDYDSVEGSTSGASSDEWEDDSDSWETDNGLVEDEHPKIEEPPIPPLEQPVAPEDKGVVISEEAATAAVQGAVAMAAPMAGLMEKAGKDGPPKSFRELKEAIKILESLKNMTVEQLLTGSPTSPTVEPEKPTREKKFLDDIKKLQENLKKTLDNVAIVEEEKMEAVPDVERKEDKPEGQSPVKAEWPSETPVLCQQCGGKPGVTFTSAKGEVFSVLEFAPSNHSFKKIEFQPPEAKKFFSTVRKEMALLATSLPEGIMVKTFEDRMDLFSALIKGPTRTPYEDGLYLFDIQLPNIYPAVPPHFCYLSQCSGRLNPNLYDNGKVCVSLLGTWIGKGTERWTSKSSLLQVLISIQGLILVNEPYYNEAGFDSDRGLQEGYENSRCYNEMALIRVVQSMTQLVRRPPEVFEQEIRQHFSTGGWRLVNRIESWLETHALLEKAQALPNGVPKASSSPEPPAVAELSDSGQQEPEDGGPAPGEASQGSDSEGGAQGLASASRDHTDQTSETAPDASVPPSVKPKKRRKSYRSFLPEKSGYPDIGFPLFPLSKGFIKSIRGVLTQFRAALLEAGMPECTEDK
